From paper PMC2935449 come the findings set out here.

Protein sequences, listed by entry. Tags and fused reporters are not part of them.
UniProt Q9UTN6: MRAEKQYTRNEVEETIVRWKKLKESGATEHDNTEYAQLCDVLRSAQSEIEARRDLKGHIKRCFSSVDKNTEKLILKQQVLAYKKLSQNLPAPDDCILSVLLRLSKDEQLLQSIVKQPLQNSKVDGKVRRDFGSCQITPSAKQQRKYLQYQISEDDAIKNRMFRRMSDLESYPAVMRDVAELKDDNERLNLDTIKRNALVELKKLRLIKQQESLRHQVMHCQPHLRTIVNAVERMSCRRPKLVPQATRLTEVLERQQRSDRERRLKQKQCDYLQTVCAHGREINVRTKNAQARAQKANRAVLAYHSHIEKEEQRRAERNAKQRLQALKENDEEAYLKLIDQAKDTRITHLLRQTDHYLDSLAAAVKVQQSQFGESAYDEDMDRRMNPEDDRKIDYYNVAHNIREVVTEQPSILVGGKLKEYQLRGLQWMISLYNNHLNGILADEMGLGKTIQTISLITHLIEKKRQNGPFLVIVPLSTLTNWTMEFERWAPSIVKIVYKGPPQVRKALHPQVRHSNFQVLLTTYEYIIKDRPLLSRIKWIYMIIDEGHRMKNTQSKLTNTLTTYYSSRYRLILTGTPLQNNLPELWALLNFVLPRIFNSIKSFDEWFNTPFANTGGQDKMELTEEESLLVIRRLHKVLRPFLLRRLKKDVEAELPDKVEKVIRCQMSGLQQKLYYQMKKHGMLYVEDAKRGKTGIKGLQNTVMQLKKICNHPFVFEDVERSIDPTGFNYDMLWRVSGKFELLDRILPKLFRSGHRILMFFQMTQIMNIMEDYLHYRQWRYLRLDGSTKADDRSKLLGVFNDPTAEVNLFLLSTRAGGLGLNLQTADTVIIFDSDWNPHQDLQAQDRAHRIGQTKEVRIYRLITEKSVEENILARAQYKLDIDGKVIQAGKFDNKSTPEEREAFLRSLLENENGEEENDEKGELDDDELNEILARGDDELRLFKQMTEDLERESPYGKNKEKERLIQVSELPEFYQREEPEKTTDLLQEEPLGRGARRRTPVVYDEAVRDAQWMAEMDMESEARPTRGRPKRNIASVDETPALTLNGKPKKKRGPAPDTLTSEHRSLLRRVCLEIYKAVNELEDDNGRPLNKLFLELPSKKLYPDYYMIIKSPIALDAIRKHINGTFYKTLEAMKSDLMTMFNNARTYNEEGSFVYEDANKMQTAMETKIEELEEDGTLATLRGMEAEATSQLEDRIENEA

Results are given in words; binding and its absence hold for the method and conditions named. In cells and extracts the contact can be indirect. A yes stands for co-enrichment or nearness to the bait. Other partners may have been found.

Test [1] has as its target T1, TAP-Ubp1 (S. pombe) (UniProt Q9USM5).
T1 sequence: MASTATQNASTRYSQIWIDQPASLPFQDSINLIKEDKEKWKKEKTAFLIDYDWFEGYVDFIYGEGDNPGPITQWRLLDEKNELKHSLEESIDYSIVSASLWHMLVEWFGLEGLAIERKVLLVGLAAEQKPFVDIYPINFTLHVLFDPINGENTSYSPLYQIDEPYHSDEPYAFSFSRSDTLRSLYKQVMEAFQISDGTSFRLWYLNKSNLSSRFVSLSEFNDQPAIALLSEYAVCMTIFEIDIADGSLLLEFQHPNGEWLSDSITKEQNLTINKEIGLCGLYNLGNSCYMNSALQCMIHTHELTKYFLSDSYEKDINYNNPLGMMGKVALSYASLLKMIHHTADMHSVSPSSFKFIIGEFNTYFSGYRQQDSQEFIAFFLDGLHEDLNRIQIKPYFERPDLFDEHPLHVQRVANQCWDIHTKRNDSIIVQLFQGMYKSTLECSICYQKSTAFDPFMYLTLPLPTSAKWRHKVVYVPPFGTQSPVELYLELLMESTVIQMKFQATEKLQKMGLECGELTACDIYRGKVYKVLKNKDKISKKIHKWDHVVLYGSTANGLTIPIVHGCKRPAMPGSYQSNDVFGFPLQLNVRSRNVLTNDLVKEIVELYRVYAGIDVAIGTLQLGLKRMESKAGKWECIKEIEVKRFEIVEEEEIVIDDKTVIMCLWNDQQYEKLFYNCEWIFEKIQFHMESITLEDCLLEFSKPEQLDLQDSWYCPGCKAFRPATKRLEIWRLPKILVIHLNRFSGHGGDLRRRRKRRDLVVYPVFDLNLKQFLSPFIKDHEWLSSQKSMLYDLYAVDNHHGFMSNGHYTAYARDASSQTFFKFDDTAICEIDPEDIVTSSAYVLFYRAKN
As to the kind of experiment: affinity purification with mass spectrometry; bait N-terminally TAP-tagged, expressed at low levels from the nmt81 promoter (pREP81-TAP), tandem affinity purification from native S. pombe lysate, 2D LC-MS/MS; duplicates.

The target in test [2] is T2, TAP-Ubp11 (S. pombe) (UniProt Q9UUD6).
T2 sequence: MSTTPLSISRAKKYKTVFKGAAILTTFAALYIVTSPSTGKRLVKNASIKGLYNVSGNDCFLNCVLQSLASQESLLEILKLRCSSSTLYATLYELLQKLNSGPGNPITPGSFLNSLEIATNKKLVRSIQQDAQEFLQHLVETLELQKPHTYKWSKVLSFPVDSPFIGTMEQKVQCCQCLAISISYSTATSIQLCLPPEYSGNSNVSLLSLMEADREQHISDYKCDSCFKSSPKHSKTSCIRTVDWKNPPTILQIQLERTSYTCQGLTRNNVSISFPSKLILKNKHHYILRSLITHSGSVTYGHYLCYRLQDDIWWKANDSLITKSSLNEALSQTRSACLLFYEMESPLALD
The description is as above.

The target of test [3] is T3, Ubp15-TAP (S. pombe) (UniProt Q9UTT1).
T3 sequence: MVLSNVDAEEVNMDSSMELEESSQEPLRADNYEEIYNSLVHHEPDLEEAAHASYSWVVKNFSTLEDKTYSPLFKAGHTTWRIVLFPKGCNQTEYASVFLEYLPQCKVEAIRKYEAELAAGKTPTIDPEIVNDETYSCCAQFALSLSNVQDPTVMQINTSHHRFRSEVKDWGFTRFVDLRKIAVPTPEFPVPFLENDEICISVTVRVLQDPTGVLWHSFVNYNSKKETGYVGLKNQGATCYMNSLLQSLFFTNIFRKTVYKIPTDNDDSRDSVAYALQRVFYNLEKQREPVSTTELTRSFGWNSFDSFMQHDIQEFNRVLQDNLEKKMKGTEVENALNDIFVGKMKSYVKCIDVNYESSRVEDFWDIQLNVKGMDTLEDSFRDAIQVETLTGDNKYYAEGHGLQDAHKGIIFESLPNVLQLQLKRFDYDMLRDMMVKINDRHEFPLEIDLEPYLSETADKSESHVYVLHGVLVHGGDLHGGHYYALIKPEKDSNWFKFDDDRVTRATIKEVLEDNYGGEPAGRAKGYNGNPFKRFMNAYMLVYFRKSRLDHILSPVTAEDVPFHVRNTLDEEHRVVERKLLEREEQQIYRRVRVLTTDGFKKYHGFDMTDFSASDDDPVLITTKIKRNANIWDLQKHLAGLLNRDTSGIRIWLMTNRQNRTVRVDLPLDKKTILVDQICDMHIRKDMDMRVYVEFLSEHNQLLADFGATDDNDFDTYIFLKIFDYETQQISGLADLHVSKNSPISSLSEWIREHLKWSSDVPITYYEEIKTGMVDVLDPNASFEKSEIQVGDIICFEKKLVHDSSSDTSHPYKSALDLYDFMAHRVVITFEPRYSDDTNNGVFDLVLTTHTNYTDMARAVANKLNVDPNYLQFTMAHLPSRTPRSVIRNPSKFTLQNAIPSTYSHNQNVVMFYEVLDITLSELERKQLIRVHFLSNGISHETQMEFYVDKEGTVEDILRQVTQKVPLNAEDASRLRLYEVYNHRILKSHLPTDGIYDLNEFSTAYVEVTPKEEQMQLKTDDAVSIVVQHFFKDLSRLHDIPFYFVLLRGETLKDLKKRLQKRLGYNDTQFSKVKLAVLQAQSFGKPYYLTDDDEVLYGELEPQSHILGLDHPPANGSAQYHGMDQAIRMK
Put plainly: affinity purification with mass spectrometry; bait endogenously TAP-tagged at its C-terminus, tandem affinity purification from native S. pombe lysate, co-purified proteins identified by 2D LC-MS/MS; duplicates, only proteins found in both replicates.

Test [4] concerns the target T4, Ubp9-TAP (S. pombe) (UniProt Q9P7V9).
T4 sequence: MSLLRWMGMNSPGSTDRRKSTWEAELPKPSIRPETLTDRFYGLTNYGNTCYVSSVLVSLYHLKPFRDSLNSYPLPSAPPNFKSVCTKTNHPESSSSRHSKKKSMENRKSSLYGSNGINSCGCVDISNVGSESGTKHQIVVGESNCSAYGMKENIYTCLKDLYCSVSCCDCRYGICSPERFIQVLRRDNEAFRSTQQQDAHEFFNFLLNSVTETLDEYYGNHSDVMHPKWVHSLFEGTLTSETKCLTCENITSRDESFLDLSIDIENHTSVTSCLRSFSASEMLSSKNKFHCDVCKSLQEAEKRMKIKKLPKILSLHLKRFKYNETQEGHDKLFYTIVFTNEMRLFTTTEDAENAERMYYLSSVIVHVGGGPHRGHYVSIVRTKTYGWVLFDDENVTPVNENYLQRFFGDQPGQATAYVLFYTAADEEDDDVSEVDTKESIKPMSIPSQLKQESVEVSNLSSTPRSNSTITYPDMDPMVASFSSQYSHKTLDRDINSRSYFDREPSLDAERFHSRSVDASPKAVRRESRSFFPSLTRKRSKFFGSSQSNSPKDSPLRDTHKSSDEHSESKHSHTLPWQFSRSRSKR
The test is described as above.

Test [5] deals with Ftp105-TAP (S. pombe). The description is as above.

Regarding Snf21 (from UniProt Q9UTN6 1-1199), in test [1], the binding entry is reported as “binds”.

B1: Tom70 (protein, UniProt O14217 1-625)
chain: MSGISNAENGKAIVSSGVLNSVSAFVRRHRTFVYTIGAVAVFATVGGVYHVQQKKASHKRSKKLKAHQDKAESKVNEGKNEAAKVVKEEDLKSSETGKDVETAAAAAAAAKKKKKNKKKVKAKKVGDSSVDKIATEESVKSMTKEERAKLAAELKTLGNKAYGQKEYANAIDYYTQAITCSHDPIFFSNRAACYAAIGDFEQVIKDTSEALSLDSSYVKALNRRSAAYEQLGKLDEALMDSTVSCIFDGFANESMTATVERLLKKVAEKKSSALLKERPPKLPAASFIQTYLDSFHAQPKPLFDNKFDGDAALAEAYEYLEKGEYQLSYDKAKESCLGSFSSPSVNARTHNLVGTFKFVSGDSKGSMENFNAAIKLDRKFIQPYIRLSAAYLDENDNEKMWKVLNDAESVDKTDSDLYYHRAQVRFVSGEFAEAISDYQKSIALDDSFIYSHIQLGVAQYKTHAIAESMKTFEDCKKRFPNSSEVYNYFGEILLDQQKFDDAVKNFDHAIELEKREHLTIMSAMPLINKALAVFQWKKDISQAENLCRQALSADPECDIAIASMAQFLLQQGKAREALEYFEKSAQLARTESEMVNAFSYAEATRTQIALTEKYPQLVGRLSNPM
For B1, in test [2], the binding entry is “binds”.

B2: Bun62 (binding Ubp9 of 62 kDa) (protein, UniProt Q10437 1-543)
chain: MQTMSSGIARPVLFLTAREGEYVLKDEFQLGSSSRSTPQITGSPLDPNTPVKRLFFMRINIAQFSRWDYPYPREYIEELKKIHGVHHVEENRDVPSILENYRNSKRKSHNFSSSNTPYLKLHRPASRAGAPLINAKSFISSLTFHDNIVRSFQPSIHGKTFVFANHEKSFYWLDVSAANSHSALLKMEFPRASPVCHDINSFTKSPKGLDVIIGFDTGDVLWYDPINFKYLRFNKNGQLNSSSVTAIKWVAGKDSQFLVSFRNGWLVLYDKYRHEQPLHIVVPEKNLKSLYLSSPGTFNILISINHRDDRKLNPVACYAFSKSPINGFCFSPDYQYLALVSERGTLKLFDFVKEHVLDVFHSYFAGLTCVTWSPDGKFIAIGGKDDLVSIYSFPLRKLVARCQGHKSWVTDVIFDAWRCDDDNYRIASVGLDRKLLLWDFSVSAIHRPKSAVYYVNHHSNNSKPAISDFDDVGDLTMGSEIDNSNYVNGDITIHPTLSRSLIPVISPITIYDVDDSPLSSVFFDPDCMITCATNGRIRTWQRP
Turning to B2, the binding entry in test [3] and in test [4] was “binds” each time.

B3: Ubp5 (enzyme, UniProt Q09879 1-1108)
chain: MVTGETLVDSQKSLINNDTLLNEKLKEDFEENVSIDVKIHEELRRALPDYEESGFQRFTWHIKSWHELDRRAVSPQFAVGSRQFKITYFPQGTLQSAGFTSIFLEYIPSEEEKLSNKYGCCCQFAFVISNPRKPSLSVANSAHCRFSPEIVDWGFTQFAELKKLLCRQAPDVPPIVEDGALLLTAYVRILKDPTGVLWHSFNDYDSKIATGYVGLKNQGATCYMNSLLQSLYIIHAFRRIVYQIPTDSPQGKDSIAYALQRCFYNLQFMNEPVSTTELTKSFGWDSLDSFMQHDVQEFNRVLQDNLERSMRDTKVENALTNLFVGKMKSYIACVNVNFESARSEDYWDIQLNVKGMKNLEDSFRSYIQVETLEGDNCYFADTYGFQEAKKGVIFESFPPILHLQLKRFEYDFERDMMIKINDRYEFPLEFDAKAFLSPEADQSQNCEYVLYGVLVHSGDLHNGHYYALLKTEKDGPWYKYDDTRVTRATLREVLEENYGGDYIMHPPFRSPVKLKRFMSAYMLLYLRKDKLDELMNPVSADEIPEHLKEALNPSIQLAELRRKERLESHLYTKVQLITPEFYSEHHEFDIADFGNAYKEETIPQFRIKKEAKFSEFIPIVAEKLGYPQECMRFWYVVKRHNCTVRVESPVNELNSTMEEVKNVWNSQGEILRLYLEITPENELSSSLTHQNTGEWNAFIFVKYFDRKSQEISGCGTLHVNKSDEIRSICPLLCERANLPKNTPLNIYEEIKPGMVDFLRLEKTFTQSELSTGDIICFEPCRPSALEDDIVNSGFDSALKLYDFLSNKVLVLFRPRFIDQDSIIEFEMLLDRRIKYDDLCIELGQKLGIGADHIRLTTCNPLTYSAGMVVPNDSNITLYEILYSSEEEMPSNVIFYETMDVSLSDLDRKRLVRLRWLVDGLANIELVEAYINKSGDINDLFGAVCERFPDSDLRKKKVRVYEVFESRYHRDLSLRTLIRTINPAATLVGEVVPLDQLQLYPEEKIVQVHHFHKDIARIHGIPFSFVIKPQEKFIDTKLRLAARTQYPESIFSVIKFCVVDFDNNRVVYLNDEDITYDVVEKLNGTLALDRAKKDSKKPNILDRAIQMKN
Turning to B3, the binding result in test [5] is on record as “binds”.
